Data on 2 substances can be found in patent US4593018A (National Research Development Corp., priority 1983, dated 1986).

This data set can be described thus: general procedure: solution-phase peptide synthesis; Boc-Asp-ONSu active ester, DIPEA. Particulars: coupling step.

As to “Boc--[Asp(OBzl)]3 --Arg(NO2)--semicarbazone”, the step yield was 55%.
For “Boc--[Asp(OBzl)]4 --Arg(NO2)--semicarbazone”, the step yield is reported as 54%.
